Ends that are not written are not given here.
Experiment: general procedure: Fmoc solid-phase peptide synthesis; preloaded Wang resin (Wang resin or 2-chlorotrityl resin); HBTU/HOBt, DIEA
Conditions: whole synthesis, non calibrated RP-HPLC, scale of the general procedure 330 μmol

FELRYRRAF
final HPLC purity: 86.1%

— US6849603B1 (NSS T Neurosurvival Technologies Ltd., priority 1998, dated 2005)
